In PMC12040169 (PLOS Biology, 2025):
This is one part of the list.

test system: T1, CTL2-GFP (C. trachomatis L2/434/Bu, GFP-expressing); set-up: species or system HeLa; Intracellular C. trachomatis growth in HeLa cells, bulk GFP fluorescence relative to DMSO; conditions: bulk GFP, single well; 28.5 h, 10 µM; inhibitor
T1 construct: L2/434/Bu, GFP-expressing

Compound | % of control remaining
O=C(Nc1ccccc1)N[C@H]1CO[C@H]2[C@@H]1OC[C@H]2OCc1ccccc1 [CBK289488] | 95.4063%
COc1ccc(S(=O)(=O)N(C)CC(=O)Nc2ccc(S(N)(=O)=O)cc2)cc1C [CBK267333] | 131.196%
COc1ccc(C)cc1CN(C)C(=O)c1cccc(NC(=O)C2CC2)c1 [CBK305414] | 135.522%
COc1ccc(F)c(CN(CC2CCNCC2)C(=O)Nc2c(F)cccc2F)c1 [CBK049804] | 85.755%
Cc1n[nH]nc1C(=O)N(C)CC(C)Oc1ccc(Cl)c(Cl)c1 (centres unmarked) [CBK306173] | 103.174%
O=C1/C(=N\O)c2cc(Cl)ccc2N1Cc1ccccc1 [CBK288468] | 114.929%
CN1CCN(C(=O)Nc2ccc(Cc3ccc(NC(=O)N4CCN(C)CC4)cc3)cc2)CC1 [CBK264852] | 116.236%
Cc1nc(C)n(CC2CCCN(Cc3cc(C#N)cs3)C2)n1 (centres unmarked) [CBK304787] | 99.7074%
Cc1csc(C(Cc2cccs2)NC(=O)C2CCOC2)n1 (centres unmarked) [CBK285123] | 100.288%
Oc1cc(-c2ccccc2)nc(NNc2ccccc2)n1 [CBK261716] | 95.8965%
CCCS(=O)(=O)c1ccc2[nH]c(NC(=O)c3cnc(-c4ccccc4)c(-c4ccncc4)c3)nc2c1 [CBK037426] | 100.76%
O=C(Cn1cc(/C=C/c2[nH]c(=O)[nH]c(=O)c2[N+](=O)[O-])c2ccccc21)Nc1ccc2c(c1)OCO2 [CBK267036] | 166.654%
O=C(NCC(O)c1ccc([N+](=O)[O-])cc1)c1cccc(S(=O)(=O)N2CCCC2)c1 (centres unmarked) [CBK268847] | 103.235%
COc1cccc(-c2cncc(C3CCN(C(=O)CCOc4ccccc4)CC3)n2)c1 [CBK286153] | 112.847%
CCOc1cc2c(cc1CN1CCN(Cc3noc(C)n3)CC1)CCC2 [CBK307138] | 142.438%
COc1cccc(CNCC(c2ccnn2C)C(C)C)n1 (centres unmarked) [CBK304858] | 104.103%
OCCN(CCO)CC1CC=CCC1 (centres unmarked) [CBK261907] | 113.023%
CCOC(=O)c1cnc(NS(=O)(=O)c2cccc(Cl)c2C)nc1C [CBK004707] | 118.164%
CCCc1[nH]nc(O)c1CCc1ccc(OC)cc1OC [CBK081123] | 98.2239%
OCCNc1nccnc1-c1ccoc1 [CBK036580] | 102.753%
O=C1CNC(=O)C2(C/C=C/C[C@H]3COCC[C@H]3N1)CCN(Cc1ccc(F)cn1)CC2 [CBK292160] | 126.925%
CCn1c2cc(C)oc2c2cn[nH]c(=O)c21 [CBK284230] | 169.074%
CC(O)(CC(=O)O)CC(=O)OCCc1ccc2c(c1)CCC2 (centres unmarked) [CBK017766] | 146.413%
CCOc1ccc(-n2c(SC/C=C/c3ccccc3)nnc2-c2cccnc2)cc1 [CBK266222] | 99.1056%
Clc1ccc(COc2nccnc2OCc2cccnc2)cc1Cl [CBK161597] | 118.081%
OCCn1ncc2c(SC3CCCCC3)ncnc21 [CBK269358] | 142.898%
CCOC(=O)C1CCCN(Cc2ccc(OC)cc2)C1 (centres unmarked) [CBK304413] | 125.631%

Structural class, those above containing a thiophene ring, fused or not
Compound | % of control remaining
Cc1nc(C)n(CC2CCCN(Cc3cc(C#N)cs3)C2)n1 (centres unmarked) [CBK304787] | 99.7074%
Cc1csc(C(Cc2cccs2)NC(=O)C2CCOC2)n1 (centres unmarked) [CBK285123] | 100.288%

The results go on:

Compound | % of control remaining
CS(=O)(=O)c1ccc(-n2cc(-c3cccnc3)nn2)cc1 [CBK113061] | 119.432%
CCOc1ccccc1NC(=O)c1cc(CC(C)C)oc1C [CBK057904] | 85.2356%
COC(=O)COc1ccc(C(NC(=O)c2ccccc2)C(Cl)(Cl)Cl)cc1 (centres unmarked) [CBK265437] | 103.744%
Cc1cccn2c(=O)c(/C=C3\SC(=S)N(CCCC(=O)O)C3=O)c(N3CCC(C)CC3)nc12 [CBK264793] | 100%
CC(C)(C)c1n[nH]c(C2CN(C(=O)CCCn3cccn3)CCO2)n1 (centres unmarked) [CBK305198] | 124.792%
COc1ccc(-c2nn(-c3ccccc3)cc2/C=C2\SC(N3CCC(C(N)=O)CC3)=NC2=O)cc1 [CBK265178] | 103.69%
O=C(O)COCC(=O)N1CCC2(CC1)NC(=O)Cc1c2ccc2ccccc12 [CBK047168] | 178.283%
Cc1cc(NC(=O)C(=O)NCCN2CCN(S(C)(=O)=O)CC2)ccc1Br [CBK265401] | 131.132%
COc1ccc(-c2nc3ncccc3cc2O)cc1C [CBK073700] | 121.484%
COCCCn1c(=O)[nH]c2ncc(-c3cccc(NC(C)=O)c3)nc21 [CBK064433] | 117.22%
Cc1ccc(O)c(CN(CCCn2ccnc2)CC2CC=CCC2)c1 (centres unmarked) [CBK282829] | 118.145%
Cc1ccc(C(=O)N2CCN(Cc3cc(=O)n4ccsc4n3)CC2)cc1 [CBK305057] | 95.0395%
O=C(c1ccco1)N1CCN(c2cncc(-c3ccc(F)cc3F)n2)CC1 [CBK065818] | 163.412%
CCCc1ccc(S(=O)(=O)Nc2c(C(=O)OC)sc3ncccc23)cc1 [CBK050653] | 119.814%
CCCc1nc(C(=O)N2Cc3cnn(Cc4ccc(F)cc4)c3C2)cs1 [CBK307249] | 138.907%
CCNC(=O)Nc1cc2ccccc2c(-c2cccnc2)n1 [CBK073787] | 127.319%
Cc1cc(Cl)ccc1CNC(=O)/C=C/c1ccc(C(C)C)cc1 [CBK149615] | 121.788%
Cn1ncnc1CCNS(=O)(=O)c1cccc(C(=O)N2CCCCC2)c1 [CBK306731] | 131.191%
COc1ccc(S(=O)(=O)N(C)CC(=O)Nc2ccc(C(N)=O)cc2)cc1C [CBK267278] | 123.174%
CCOC(=O)NC(=S)NCCCn1ccnc1 [CBK018272] | 110.031%
O=C(c1ccccc1F)N1CCCC(c2cc3ncccc3cn2)C1 (centres unmarked) [CBK284710] | 152.94%
O=c1[nH]c(=O)c2cc(S(=O)(=O)NCC3(N4CCOCC4)CCCCC3)ccc2[nH]1 [CBK286390] | 117.749%
CC1CC1C(=O)NCCN1CCC(O)(c2ccc(F)cc2)CC1 (centres unmarked) [CBK283168] | 102.022%
CCC(NC(=O)Nc1cc(N2CCOCC2)ccc1Cl)c1cnn(C)c1 (centres unmarked) [CBK306844] | 90.9029%
CCn1ncc(CN2C3CCC2CC(O)(c2ccc(F)cc2)C3)c1C (centres unmarked) [CBK282973] | 163.693%
CC1(C)CC(=O)c2cnc3cc(-c4ccco4)nn3c2C1 [CBK283142] | 103.335%
Cc1nn(C(C)C)c(C)c1CN(CCCN(C)C)Cc1ccco1 [CBK282978] | 152.097%

Compound | % of control remaining
Cc1ccc(OCCCCNCCN)c(Br)c1 [CBK265099G] | 100%
CCCc1cc(C(=O)OC)c(NC(=O)CC2Nc3ccccc3NC2=O)s1 (centres unmarked) [CBK269451] | 82.7227%
Cc1ccc(OCC(=O)N2CCCCC2c2nccs2)cc1 (centres unmarked) [CBK305091] | 116.998%
O=C(O)CCC(=O)N1N=C(c2c(-c3ccccc3)c3cc(Br)ccc3[nH]c2=O)CC1c1ccc([N+](=O)[O-])cc1 (centres unmarked) [CBK267543] | 146.069%
O=[N+]([O-])c1ccc(NCCNC(=S)Nc2ccc(Cl)cc2)nc1 [CBK263594] | 92.2997%
CCOc1ccc(NC(=O)c2ccc(CN3CCOCC3)cc2)cc1 [CBK033557] | 97.0558%
O=C(O)c1ccc(OCc2n[nH]c(=S)n2-c2ccc(Cl)cc2)cc1 [CBK014317] | 105.438%
O=C(c1cccs1)N1CCC(c2onc3c2CCCC3)CC1 [CBK285181] | 104.903%
O=C(c1ccco1)c1cnc2ccccn2c1=O [CBK010791] | 115.605%
CC(C)NS(=O)(=O)c1ccc(NC(=O)COc2ccc3ccccc3c2Br)cc1 [CBK267920] | 89.2123%
Cc1cccc(OCCSc2nc3c(N)ncn(Cc4ccccc4)c-3n2)c1 [CBK266843] | 156.67%
N#Cc1cccc(C(=O)N2CCC3(CCN(C(=O)c4cc(F)c(F)cc4F)C3)C2)c1 (centres unmarked) [CBK131387] | 118.561%
COc1cc(Nc2nc(-c3cccc(OC(F)(F)F)c3)cn3ccnc23)cc(OC)c1OC [CBK038036] | 84.8739%
CN1CCN(CC(CC(=O)Nc2c(F)cccc2F)C(=O)O)CC1 (centres unmarked) [CBK286867] | 124.512%
CCOC(=O)NC(NCc1ccco1)(C(F)(F)F)C(F)(F)F [CBK057654] | 127.759%
O=C1C2(Cc3ccccc3)CN3CN(C2)CC1(Cc1ccccc1)C3 [CBK261341] | 109.661%
Cc1cnn(CC2CC2)c1NC(=O)Cc1csc(N2CCCC2=O)n1 [CBK304940] | 136.449%
O=C1C[C@@H]2CCN(C(=O)COc3ccccc3)C[C@@H]2CCN1Cc1cccnc1 [CBK288793] | 137.778%
CC(CC(=O)O)n1nnc2ccccc21 (centres unmarked) [CBK264139] | 112.099%
CCN1CCC(NCc2ccc(OCC(N)=O)cc2)CC1 [CBK306106] | 113.573%
Cc1cc(C)nc(NCCC(=O)O)n1 [CBK270154] | 129.327%
Cc1nc(CCNCc2c(C(C)C)nn(C)c2N(C)C)cs1 [CBK304002] | 91.3432%
CN(CC(=O)C(C#N)c1ccccc1)Cc1ccccc1 (centres unmarked) [CBK269432] | 114.461%
CC(C)NC(=O)CN1C(=O)N2CCCN=C2c2ccc(Cl)cc21 [CBK284390] | 113.618%
CC(C)c1ccc(S(=O)(=O)NCCC(C)(C)C)cc1 [CBK043640] | 107.423%
O=C(CN1CCC(c2cccc(Cc3cccc(F)c3)n2)CC1)Nc1nccs1 [CBK286090] | 102.359%
